Experimental data from patent US9265777B2, “Antiparasitic agent for fish and method of controlling proliferation of fish parasites” (NIPPON SUISAN KAISHA, LTD., priority 2009, dated 2016).

Tested on: Cryptocaryon irritans
Test: Examples 3 and 4: oral administration of single inhibitors and a combination against Cryptocaryon irritans on Pagrus major
Type: in vivo
Settings: 300 mg/kg fish body weight/day for three days; 60 parasites per plot; P=<0.01
Excerpt: During the rearing period, 1.4 liters/min. of seawater was supplied. […] After exposure, seven fish each were moved into six 100-liter aquariums. During the rearing period, 1.4 liters/min. of seawater was supplied. […] Experimental plot: […]

## Cc1cc(NS(=O)(=O)c2ccc(N)cc2)no1 [SMXZ, sulfamethoxazole]
  growth rate of parasites (body length as percentage of control plot), difference to control plot: statistically significant difference
